Experimental data reported in the supplement of paper PMC10470496.
Counter-ions that a name gives are not always drawn. The list shows a part of the results. Single values are uncertain, as repeats are few or missing.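 The strains were three CDC resistance-bank clinical C. auris isolates from clades III, IV and I, cultured in RPMI-1640 at 35°C. Growth was background-corrected OD600 versus vehicle-only wells on the same plate. A hit needed >50% inhibition in two or more strains plus a plate-corrected B-score exceeding 0.1.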

Key:
Assay in all cases: growth relative to vehicle control (OD600 ratio) (fraction); higher = less inhibition
Conditions in all cases: 24 h
C. auris AR-384 = test system: C. auris AR-384
C. auris AR-386 = test system: C. auris AR-386
C. auris AR-387 = test system: C. auris AR-387

NC[C@H](CC(=O)O)c1ccc(Cl)cc1 [(R)-baclofen]
growth (C. auris AR-384; 1 µM): 0.89
growth (C. auris AR-384; 10 µM): 1.23
growth (C. auris AR-386; 1 µM): 0.92
growth (C. auris AR-386; 10 µM): 0.86
growth (C. auris AR-387; 1 µM): 1.19
growth (C. auris AR-387; 10 µM): 1.24

Cc1ccccc1-n1c(CF)nc2ccc(N)cc2c1=O [Afloqualone]
growth (C. auris AR-384; 1 µM): 0.71
growth (C. auris AR-384; 10 µM): 0.78
growth (C. auris AR-386; 1 µM): 0.9
growth (C. auris AR-386; 10 µM): 1
growth (C. auris AR-387; 1 µM): 0.83
growth (C. auris AR-387; 10 µM): 0.88

CNC1CC(N)C(O)C(OC2OC(CO)C(O)C3OC4(OC(C(N)CO)C(O)C(O)C4O)OC23)C1O (stereo not given) [Hygromycin B]
growth (C. auris AR-384; 1 µM): 1.2
growth (C. auris AR-384; 10 µM): 1.14
growth (C. auris AR-386; 1 µM): 1.1
growth (C. auris AR-386; 10 µM): 1.22
growth (C. auris AR-387; 1 µM): 0.94
growth (C. auris AR-387; 10 µM): 1.27

C=CN1CCCC1=O.II [Povidone iodine]
growth (C. auris AR-384; 1 µM): 0.82
growth (C. auris AR-384; 10 µM): 0.9
growth (C. auris AR-386; 1 µM): 0.68
growth (C. auris AR-386; 10 µM): 0.67
growth (C. auris AR-387; 1 µM): 0.74
growth (C. auris AR-387; 10 µM): 0.76

CCN(CC)CCOC(=O)C(O)(c1ccccc1)c1ccccc1 [Benactyzine hydrochloride]
growth (C. auris AR-384; 1 µM): 1.09
growth (C. auris AR-384; 10 µM): 0.81
growth (C. auris AR-386; 1 µM): 0.9
growth (C. auris AR-386; 10 µM): 0.93
growth (C. auris AR-387; 1 µM): 0.65
growth (C. auris AR-387; 10 µM): 0.73

Cn1cc(C2=C(c3cn(C4CCN(Cc5ccccn5)CC4)c4ccccc34)C(=O)NC2=O)c2ccccc21
growth (C. auris AR-384; 1 µM): 1.1
growth (C. auris AR-384; 10 µM): 0.53
growth (C. auris AR-386; 1 µM): 0.76
growth (C. auris AR-386; 10 µM): 0.72
growth (C. auris AR-387; 1 µM): 0.69
growth (C. auris AR-387; 10 µM): 0.94

C[CH2][Hg][S]c1ccccc1C(=O)[O-].[Na+] [Thimerosal]
growth (C. auris AR-384; 1 µM): 0.21
growth (C. auris AR-384; 10 µM): 0.18
growth (C. auris AR-386; 1 µM): 0.03
growth (C. auris AR-386; 10 µM): 0.03
growth (C. auris AR-387; 1 µM): 0.03
growth (C. auris AR-387; 10 µM): 0

CC(C)OC(=O)[C@H](C)N[P@](=O)(CO[C@H](C)Cn1cnc2c(N)ncnc21)Oc1ccccc1 [Tenofovir Alafenamide (GS-7340)]
growth (C. auris AR-384; 1 µM): 0.77
growth (C. auris AR-384; 10 µM): 0.73
growth (C. auris AR-386; 1 µM): 0.51
growth (C. auris AR-386; 10 µM): 0.91
growth (C. auris AR-387; 1 µM): 0.75
growth (C. auris AR-387; 10 µM): 0.67

O.O.O.O=C([O-])C1[O][Sb]2[O]C(=O)C([O]2)C(C(=O)[O-])[O][Sb]2[O]C(=O)C1[O]2.[K+].[K+] (stereo not given) [Antimonyl potassium tartrate trihydrate]
growth (C. auris AR-384; 1 µM): 1.39
growth (C. auris AR-384; 10 µM): 0.92
growth (C. auris AR-386; 1 µM): 1.19
growth (C. auris AR-386; 10 µM): 1.32
growth (C. auris AR-387; 1 µM): 1.07
growth (C. auris AR-387; 10 µM): 1.1

CCC1(C)CC(=O)NC(=O)C1 [Bemegride]
growth (C. auris AR-384; 1 µM): 0.96
growth (C. auris AR-384; 10 µM): 0.79
growth (C. auris AR-386; 1 µM): 1.12
growth (C. auris AR-386; 10 µM): 0.78
growth (C. auris AR-387; 1 µM): 0.77
growth (C. auris AR-387; 10 µM): 0.65

CC(C)NCC(O)c1ccccc1Cl (stereo not given) [Clorprenaline HCl]
growth (C. auris AR-384; 1 µM): 0.75
growth (C. auris AR-384; 10 µM): 0.76
growth (C. auris AR-386; 1 µM): 0.77
growth (C. auris AR-386; 10 µM): 0.93
growth (C. auris AR-387; 1 µM): 0.63
growth (C. auris AR-387; 10 µM): 0.78

Cn1c(COP(=O)(NCCBr)NCCBr)cnc1[N+](=O)[O-]
growth (C. auris AR-384; 1 µM): 0.81
growth (C. auris AR-384; 10 µM): 0.96
growth (C. auris AR-386; 1 µM): 0.93
growth (C. auris AR-386; 10 µM): 0.66
growth (C. auris AR-387; 1 µM): 0.73
growth (C. auris AR-387; 10 µM): 0.84

CC(=O)NC1CCSC1=O (stereo not given) [Citiolone]
growth (C. auris AR-384; 1 µM): 1.21
growth (C. auris AR-384; 10 µM): 1.22
growth (C. auris AR-386; 1 µM): 0.94
growth (C. auris AR-386; 10 µM): 1.15
growth (C. auris AR-387; 1 µM): 0.68
growth (C. auris AR-387; 10 µM): 0.87

C=CCN1CC[C@]23c4c5ccc(O)c4O[C@H]2C(=O)CC[C@@]3(O)[C@H]1C5 [Naloxone HCl Dihydrate]
growth (C. auris AR-384; 1 µM): 0.93
growth (C. auris AR-384; 10 µM): 0.77
growth (C. auris AR-386; 1 µM): 1.05
growth (C. auris AR-386; 10 µM): 0.68
growth (C. auris AR-387; 1 µM): 0.82
growth (C. auris AR-387; 10 µM): 0.6

C[N+]1(C)[C@@H]2C[C@@H](OC(=O)[C@H](CO)c3ccccc3)C[C@H]1[C@@H]1O[C@@H]12 [Methscopolamine]
growth (C. auris AR-384; 1 µM): 1.06
growth (C. auris AR-384; 10 µM): 1.28
growth (C. auris AR-386; 1 µM): 0.98
growth (C. auris AR-386; 10 µM): 0.82
growth (C. auris AR-387; 1 µM): 0.84
growth (C. auris AR-387; 10 µM): 1.07

CC[C@@H](C(N)=O)N1CCCC1=O [Levetiracetam]
growth (C. auris AR-384; 1 µM): 1.29
growth (C. auris AR-384; 10 µM): 1.46
growth (C. auris AR-386; 1 µM): 1.14
growth (C. auris AR-386; 10 µM): 0.85
growth (C. auris AR-387; 1 µM): 0.7
growth (C. auris AR-387; 10 µM): 0.67

Cc1cccc(C)c1NC(=O)CN1CCCC1=O [Nefiracetam]
growth (C. auris AR-384; 1 µM): 0.81
growth (C. auris AR-384; 10 µM): 0.81
growth (C. auris AR-386; 1 µM): 0.56
growth (C. auris AR-386; 10 µM): 1
growth (C. auris AR-387; 1 µM): 0.84
growth (C. auris AR-387; 10 µM): 0.71

NCC1(CC(=O)O)CCCCC1 [Gabapentin HCl]
growth (C. auris AR-384; 1 µM): 0.62
growth (C. auris AR-384; 10 µM): 0.45
growth (C. auris AR-386; 1 µM): 0.93
growth (C. auris AR-386; 10 µM): 0.73
growth (C. auris AR-387; 1 µM): 0.73
growth (C. auris AR-387; 10 µM): 0.76

O=[N+]([O-])C(Br)(CO)CO [Bronopol]
growth (C. auris AR-384; 1 µM): 0.82
growth (C. auris AR-384; 10 µM): 0.54
growth (C. auris AR-386; 1 µM): 0.59
growth (C. auris AR-386; 10 µM): 0.57
growth (C. auris AR-387; 1 µM): 0.55
growth (C. auris AR-387; 10 µM): 0.49

CCN(C)C(=O)Oc1cccc([C@H](C)N(C)C)c1 [Rivastigmine]
growth (C. auris AR-384; 1 µM): 1.16
growth (C. auris AR-384; 10 µM): 1.43
growth (C. auris AR-386; 1 µM): 0.97
growth (C. auris AR-386; 10 µM): 0.8
growth (C. auris AR-387; 1 µM): 0.91
growth (C. auris AR-387; 10 µM): 0.95

C=CCN1CC[C@]23c4c5ccc(O)c4O[C@H]2C(=O)CC[C@@]3(O)[C@H]1C5 [Naloxone HCl]
growth (C. auris AR-384; 1 µM): 0.86
growth (C. auris AR-384; 10 µM): 1.46
growth (C. auris AR-386; 1 µM): 0.89
growth (C. auris AR-386; 10 µM): 1.19
growth (C. auris AR-387; 1 µM): 0.93
growth (C. auris AR-387; 10 µM): 1.38

COc1cc2c(cc1OC)C1CC(=O)C(CC(C)C)CN1CC2 (stereo not given) [Tetrabenazine (Xenazine)]
growth (C. auris AR-384; 1 µM): 0.73
growth (C. auris AR-384; 10 µM): 0.58
growth (C. auris AR-386; 1 µM): 0.71
growth (C. auris AR-386; 10 µM): 0.99
growth (C. auris AR-387; 1 µM): 0.75
growth (C. auris AR-387; 10 µM): 0.76

NC(=O)C[S@@+]([O-])C(c1ccccc1)c1ccccc1 [Armodafinil]
growth (C. auris AR-384; 1 µM): 0.78
growth (C. auris AR-384; 10 µM): 0.77
growth (C. auris AR-386; 1 µM): 0.86
growth (C. auris AR-386; 10 µM): 1.02
growth (C. auris AR-387; 1 µM): 0.7
growth (C. auris AR-387; 10 µM): 0.87

N=C(N)NN [Aminoguanidine hydrochloride]
growth (C. auris AR-384; 1 µM): 0.96
growth (C. auris AR-384; 10 µM): 0.97
growth (C. auris AR-386; 1 µM): 0.67
growth (C. auris AR-386; 10 µM): 0.76
growth (C. auris AR-387; 1 µM): 0.67
growth (C. auris AR-387; 10 µM): 0.64

CCC1(c2ccc(N)cc2)CCC(=O)NC1=O (stereo not given) [Aminoglutethimide]
growth (C. auris AR-384; 1 µM): 0.94
growth (C. auris AR-384; 10 µM): 1.09
growth (C. auris AR-386; 1 µM): 1.24
growth (C. auris AR-386; 10 µM): 0.79
growth (C. auris AR-387; 1 µM): 0.93
growth (C. auris AR-387; 10 µM): 1.05
